Paper PMC11789580
No constants are given. Whether binding was seen depends on the method and setting. Binding seen in cells or lysates may run through a third protein. Some binding calls cover weakened binding; strength is not graded here. Sequences can lack the tags named with a protein.

T1: RPOTp-nLUC (Arabidopsis) (UniProt O24600)
T1 sequence: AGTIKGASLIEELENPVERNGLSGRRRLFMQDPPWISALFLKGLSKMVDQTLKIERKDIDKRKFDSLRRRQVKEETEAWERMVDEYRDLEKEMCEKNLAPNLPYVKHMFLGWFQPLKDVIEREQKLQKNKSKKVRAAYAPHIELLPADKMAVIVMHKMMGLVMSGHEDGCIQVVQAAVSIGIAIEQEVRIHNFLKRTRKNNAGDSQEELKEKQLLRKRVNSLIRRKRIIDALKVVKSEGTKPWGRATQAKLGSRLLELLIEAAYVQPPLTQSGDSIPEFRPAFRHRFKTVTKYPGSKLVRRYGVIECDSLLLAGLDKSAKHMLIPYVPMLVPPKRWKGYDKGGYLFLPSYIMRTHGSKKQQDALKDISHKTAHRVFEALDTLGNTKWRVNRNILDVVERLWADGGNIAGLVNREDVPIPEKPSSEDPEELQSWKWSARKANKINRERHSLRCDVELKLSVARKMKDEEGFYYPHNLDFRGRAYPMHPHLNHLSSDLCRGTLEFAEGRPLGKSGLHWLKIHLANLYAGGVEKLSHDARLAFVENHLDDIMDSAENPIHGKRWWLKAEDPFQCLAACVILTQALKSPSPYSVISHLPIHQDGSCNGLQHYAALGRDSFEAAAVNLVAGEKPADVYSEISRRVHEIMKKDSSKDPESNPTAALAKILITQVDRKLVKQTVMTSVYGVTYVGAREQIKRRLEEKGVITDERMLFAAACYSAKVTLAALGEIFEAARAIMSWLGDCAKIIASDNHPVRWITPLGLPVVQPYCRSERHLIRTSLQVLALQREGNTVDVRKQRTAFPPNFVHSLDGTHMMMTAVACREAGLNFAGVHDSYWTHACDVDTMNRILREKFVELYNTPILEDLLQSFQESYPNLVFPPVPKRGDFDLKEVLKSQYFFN

T2: RPOTp-nYFP (Arabidopsis) (UniProt O24600)
T2 sequence: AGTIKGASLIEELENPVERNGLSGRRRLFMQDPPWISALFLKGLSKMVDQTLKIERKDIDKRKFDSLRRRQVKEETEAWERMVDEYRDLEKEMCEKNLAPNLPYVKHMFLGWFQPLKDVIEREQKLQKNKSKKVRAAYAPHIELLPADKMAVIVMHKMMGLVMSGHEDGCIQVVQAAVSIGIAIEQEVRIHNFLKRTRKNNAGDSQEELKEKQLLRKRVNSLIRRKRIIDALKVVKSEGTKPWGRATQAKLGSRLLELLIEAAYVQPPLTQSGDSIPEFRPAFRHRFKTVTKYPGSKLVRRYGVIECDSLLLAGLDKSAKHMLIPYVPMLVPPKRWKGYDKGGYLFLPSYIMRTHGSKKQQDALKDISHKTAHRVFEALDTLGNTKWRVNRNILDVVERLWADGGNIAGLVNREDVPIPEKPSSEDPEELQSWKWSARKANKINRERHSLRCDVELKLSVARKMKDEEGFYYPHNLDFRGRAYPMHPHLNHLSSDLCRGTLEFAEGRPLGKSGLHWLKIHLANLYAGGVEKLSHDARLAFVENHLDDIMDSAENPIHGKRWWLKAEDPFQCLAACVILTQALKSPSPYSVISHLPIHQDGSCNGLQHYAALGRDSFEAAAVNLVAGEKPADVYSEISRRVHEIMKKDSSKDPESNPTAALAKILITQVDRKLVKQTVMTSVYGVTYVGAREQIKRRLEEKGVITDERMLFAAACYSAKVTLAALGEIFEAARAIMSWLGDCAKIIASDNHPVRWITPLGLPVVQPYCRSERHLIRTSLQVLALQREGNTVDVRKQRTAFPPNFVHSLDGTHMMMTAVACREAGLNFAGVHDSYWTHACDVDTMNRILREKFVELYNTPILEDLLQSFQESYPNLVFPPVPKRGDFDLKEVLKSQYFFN


Tests used:
RPOTp-nLUC (Arabidopsis) = target: T1, RPOTp-nLUC (Arabidopsis); experiment: split reporter; firefly luciferase complementation imaging (LCI): nLUC and cLUC fusions co-infiltrated into 4-week-old Nicotiana benthamiana leaves, 3 days, 1 mM D-luciferin, CCD camera
RPOTp-nYFP (Arabidopsis) = target: T2, RPOTp-nYFP (Arabidopsis); experiment: split reporter; BiFC: nYFP and cYFP fusions co-infiltrated into epidermal cells of 4-week-old Nicotiana benthamiana leaves, 48 h at 22 °C, confocal microscopy

Row | Binder | binding (RPOTp-nLUC (Arabidopsis)) | binding (RPOTp-nYFP (Arabidopsis))
1 | CRR28 (protein, UniProt Q0WQW5 41-638) ASTAGNHHQRIFSLAETCSDMSQLKQLHAFTLRTTYPEEPATLFLYGKILQLSSSFSDVNYAFRVFDSIENHSSFMWNTLIRACAHDVSRKEEAFMLYRKMLERGESSPDKHTFPFVLKACAYIFGFSEGKQVHCQIVKHGFGGDVYVNNGLIHLYGSCGCLDLARKVFDEMPERSLVSWNSMIDALVRFGEYDSALQLFREMQRSFEPDGYTMQSVLSACAGLGSLSLGTWAHAFLLRKCDVDVAMDVLVKNSLIEMYCKCGSLRMAEQVFQGMQKRDLASWNAMILGFATHGRAEEAMNFFDRMVDKRENVRPNSVTFVGLLIACNHRGFVNKGRQYFDMMVRDYCIEPALEHYGCIVDLIARAGYITEAIDMVMSMPMKPDAVIWRSLLDACCKKGASVELSEEIARNIIGTKEDNESSNGNCSGAYVLLSRVYASASRWNDVGIVRKLMSEHGIRKEPGCSSIEINGISHEFFAGDTSHPQTKQIYQQLKVIDDRLRSIGYLPDRSQAPLVDATNDGSKEYSLRLHSERLAIAFGLINLPPQTPIRIFKNLRVCNDCHEVTKLISKVFNTEIIVRDRVRFHHFKDGSCSCLDYW | no binding | –
2 | MORF2-cYFP (protein, UniProt O22793 49-219) CGANRSGSTYSPLNSGSNFSDRPPTEMAPLFPGCDYEHWLIVMDKPGGEGATKQQMIDCYIQTLAKVVGSEEEAKKRIYNVSCERYLGFGCEIDEETSTKLEGLPGVLFVLPDSYVDPENKDYGAELFVNGEIVQRSPERQRRVEPQPQRAQDRPRYNDRTRYSRRRENTR | – | binds
3 | MORF9-cYFP (protein, UniProt Q9LPZ1 59-232) AATVDSDYSSKRSNSNEQRETIMLPGCDYNHWLIVMEFPKDPAPSRDQMIDTYLNTLATVLGSMEEAKKNMYAFSTTTYTGFQCTIDEETSEKFKGLPGVLWVLPDSYIDVKNKDYGGDKYINGEIIPCTYPTYQPKQRNNTKYQSKRYERKRDGPPPPEQRKPRQEPAASDSS | – | binds

Continued, values first:

Row | binding (RPOTp-nLUC (Arabidopsis)) | binding (RPOTp-nYFP (Arabidopsis)) | Binder
4 | no binding | – | DOT4 (protein, UniProt Q9SN39 29-871) SGVRVRKYVIFNRASLRTVSDCVDSITTFDRSVTDANTQLRRFCESGNLENAVKLLCVSGKWDIDPRTLCSVLQLCADSKSLKDGKEVDNFIRGNGFVIDSNLGSKLSLMYTNCGDLKEASRVFDEVKIEKALFWNILMNELAKSGDFSGSIGLFKKMMSSGVEMDSYTFSCVSKSFSSLRSVHGGEQLHGFILKSGFGERNSVGNSLVAFYLKNQRVDSARKVFDEMTERDVISWNSIINGYVSNGLAEKGLSVFVQMLVSGIEIDLATIVSVFAGCADSRLISLGRAVHSIGVKACFSREDRFCNTLLDMYSKCGDLDSAKAVFREMSDRSVVSYTSMIAGYAREGLAGEAVKLFEEMEEEGISPDVYTVTAVLNCCARYRLLDEGKRVHEWIKENDLGFDIFVSNALMDMYAKCGSMQEAELVFSEMRVKDIISWNTIIGGYSKNCYANEALSLFNLLLEEKRFSPDERTVACVLPACASLSAFDKGREIHGYIMRNGYFSDRHVANSLVDMYAKCGALLLAHMLFDDIASKDLVSWTVMIAGYGMHGFGKEAIALFNQMRQAGIEADEISFVSLLYACSHSGLVDEGWRFFNIMRHECKIEPTVEHYACIVDMLARTGDLIKAYRFIENMPIPPDATIWGALLCGCRIHHDVKLAEKVAEKVFELEPENTGYYVLMANIYAEAEKWEQVKRLRKRIGQRGLRKNPGCSWIEIKGRVNIFVAGDSSNPETENIEAFLRKVRARMIEEGYSPLTKYALIDAEEMEKEEALCGHSEKLAMALGIISSGHGKIIRVTKNLRVCGDCHEMAKFMSKLTRREIVLRDSNRFHQFKDGHCSCRGFW
5 | no binding | – | OTP81 (protein, UniProt O82380 43-738) LRQLKQTHGHMIRTGTFSDPYSASKLFAMAALSSFASLEYARKVFDEIPKPNSFAWNTLIRAYASGPDPVLSIWAFLDMVSESQCYPNKYTFPFLIKAAAEVSSLSLGQSLHGMAVKSAVGSDVFVANSLIHCYFSCGDLDSACKVFTTIKEKDVVSWNSMINGFVQKGSPDKALELFKKMESEDVKASHVTMVGVLSACAKIRNLEFGRQVCSYIEENRVNVNLTLANAMLDMYTKCGSIEDAKRLFDAMEEKDNVTWTTMLDGYAISEDYEAAREVLNSMPQKDIVAWNALISAYEQNGKPNEALIVFHELQLQKNMKLNQITLVSTLSACAQVGALELGRWIHSYIKKHGIRMNFHVTSALIHMYSKCGDLEKSREVFNSVEKRDVFVWSAMIGGLAMHGCGNEAVDMFYKMQEANVKPNGVTFTNVFCACSHTGLVDEAESLFHQMESNYGIVPEEKHYACIVDVLGRSGYLEKAVKFIEAMPIPPSTSVWGALLGACKIHANLNLAEMACTRLLELEPRNDGAHVLLSNIYAKLGKWENVSELRKHMRVTGLKKEPGCSSIEIDGMIHEFLSGDNAHPMSEKVYGKLHEVMEKLKSNGYEPEISQVLQIIEEEEMKEQSLNLHSEKLAICYGLISTEAPKVIRVIKNLRVCGDCHSVAKLISQLYDREIIVRDRYRFHHFRNGQCSCNDFW
